This is an account of results in PMC12495445.

The target of assay [1] is FLAG-DENN/MADD-L346P (human). In words: co-IP; HEK-293T cells cotransfected with FLAG-DENN/MADD (WT or L346P) and GFP or GFP-Rab mutants; lysed 24 h later in 20 mM Hepes, 100 mM NaCl, 0.5 mM dithiothreitol, 10 mM MgCl2, 1% Triton X-100, pH 7.4; 1 mg of precleared lysate with anti-FLAG antibody and protein G-Sepharose, 2 h, 4 °C; immunoblot with anti-GFP and anti-FLAG. On the technique in general: Immunoblotting shows a protein as a band on a membrane.

Assay [2] addresses FLAG-DENN/MADD-V1 (human). The description is as above.

Results are given in words; binding and its absence hold for the method and conditions named. In cells and extracts the contact can be indirect. Binding can be weak; no strength is given. Sequences can lack the tags named with a protein.

B1: GFP-Rab27B T23N (protein, UniProt O00194 1-218)
chain: MTDGDYDYLIKLLALGDSGVGKNTFLYRYTDNKFNPKFITTVGIDFREKRVVYNAQGPNGSSGKAFKVHLQLWDTAGQERFRSLTTAFFRDAMGFLLMFDLTSQQSFLNVRNWMSQLQANAYCENPDIVLIGNKADLPDQREVNERQARELADKYGIPYFETSAATGQNVEKAVETLLDLIMKRMEQCVEKTQIPDTVNGGNSGNLDGEKPPEKKCIC
As to B1, the binding entry in assay [1] and in assay [2] was “binds” each time.

B2: GFP-Rab26T81N (protein, UniProt Q504M8 1-260)
chain: MSRKKTPKSKGGSEPATSTLPAAAAATNGPRLAHPRTVRPGPEAPPNGPPQSIRPSLGSTGDFYDVAFKVMLVGDSGVGKNCLLVRFKDGAFLAGTFISTVGIDFRNKVLDVDGMKVKLQIWDTAGQERFRSVTHAYYRDAHALLLLYDITNKDSFDNIQAWLTEIQEYAQQDVVLMLLGNKVDSTQDRVVKREDGEKLAKEYGLPFMETSARTGLNVDLAFTAIAKELKQRSAKAPSEPRFRLHDYVKREGRGVSCCRL
Consider B2, for which the binding entry in assay [2] is given as “binds”.

B3: GFP-Rab3BT36N (protein, UniProt Q9CZT8 1-219)
chain: MASVTDGKTGIKDASDQNFDYMFKLLIIGNSSVGKNSFLFRYADDTFTPAFVSTVGIDFKVKTVYRHEKRVKLQIWDTAGQERYRTITTAYYRGAMGFILMYDITNEESFNAVQDWATQIKTYSWDNAQVILVGNKCDMEEERVVPTEKGRLLAEQLGFDFFEASAKENISVRQAFERLVDAICDKMSDSMDTDPSVLGASKTTRLSDTPPLLQQNCSC
On to B3, for which the binding result in assay [2] was “binds”.

B4: GFP-Rab3CT44N (protein, UniProt P62823 1-227)
chain: MRHEAPMQMASAQDARFGQKDSSDQNFDYMFKLLIIGNSSVGKNSFLFRYADDSFTSAFVSTVGIDFKVKTVFKNEKRIKLQIWDTAGQERYRTITTAYYRGAMGFILMYDITNEESFNAVQDWSTQIKTYSWDNAQVILAGNKCDMEDERVVSTERGQRLGEQLGFEFFETSAKDNINVKQTFERLVDIICDKMSESLETDPAITAAKQSTRLKETPPPPQPNCGC
With B4, the binding entry in assay [1] and in assay [2] was “binds” throughout.

B5: GFP-Rab37T43N (protein, UniProt Q9JKM7 1-223)
chain: MTGTPGAATAGDGEAPERSPPFSPNYDLTGKVMLLGDSGVGKNCFLIQFKDGAFLSGTFIATVGIDSRNKVVTVDGARVKLQIWDTAGQERFRSVTHAYYRDAQALLLLYDITNQSSFDNIRAWLTEIHEYAQRDVVIMLLGNKADVSSERVIRSEDGETLAREYGVPFMETSAKTGMNVELAFLAIAKELKYRAGRQPDEPSFQIRDYVESQKKRSSCCSFV
As for B5, in assay [2], the binding result is given as “binds”.
